Some of the results follow.
Assays:
Experiment in all cases: log2 fold change, soluble protein after heating vs DMSO (PISA); higher = thermal stabilisation; K562 lysate, 10 uM; active = over 0.2 and 3.5 SD of the protein, either way, in both replicates (recomputed)
vemurafenib = compound: CCCS(=O)(=O)Nc1ccc(F)c(C(=O)c2c[nH]c3ncc(-c4ccc(Cl)cc4)cc23)c1F [vemurafenib]
Summary of the method: (§1)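 To prepare the extract, K562 pellets were dounce-homogenised in PBS pH 7.4 with 1 mM MgCl2, giving crude material at 1 mg/mL protein. This was treated with 10 μM compound for 30 min, then heated in aliquots for 3 min over 48°C-58°C before pooling and addition of NP-40 to 0.5% at 4°C. Centrifugation at 21,000xg for 90 min left soluble protein in the supernatant, which TMTpro 16plex LC-MS/MS quantified with equalised channel sums. Results are log-two fold changes in thermal stability compared with solvent controls, from duplicates.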

Protein sequences, listed by entry. Tags and fused reporters are not part of them. Lines headed by an entry give the natural chain unless they say otherwise; changes in a name come on top.
UniProt Q9H999: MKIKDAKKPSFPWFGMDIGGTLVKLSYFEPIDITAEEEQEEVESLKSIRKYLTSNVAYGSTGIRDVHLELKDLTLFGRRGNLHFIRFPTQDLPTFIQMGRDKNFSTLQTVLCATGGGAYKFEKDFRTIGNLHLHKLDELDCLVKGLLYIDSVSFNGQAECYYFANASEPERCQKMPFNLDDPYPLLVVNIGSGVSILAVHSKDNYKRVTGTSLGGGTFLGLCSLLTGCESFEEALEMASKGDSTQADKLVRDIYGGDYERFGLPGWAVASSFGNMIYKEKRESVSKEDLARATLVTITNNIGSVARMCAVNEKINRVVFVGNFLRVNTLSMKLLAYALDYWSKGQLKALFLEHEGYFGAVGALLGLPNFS
UniProt O95340: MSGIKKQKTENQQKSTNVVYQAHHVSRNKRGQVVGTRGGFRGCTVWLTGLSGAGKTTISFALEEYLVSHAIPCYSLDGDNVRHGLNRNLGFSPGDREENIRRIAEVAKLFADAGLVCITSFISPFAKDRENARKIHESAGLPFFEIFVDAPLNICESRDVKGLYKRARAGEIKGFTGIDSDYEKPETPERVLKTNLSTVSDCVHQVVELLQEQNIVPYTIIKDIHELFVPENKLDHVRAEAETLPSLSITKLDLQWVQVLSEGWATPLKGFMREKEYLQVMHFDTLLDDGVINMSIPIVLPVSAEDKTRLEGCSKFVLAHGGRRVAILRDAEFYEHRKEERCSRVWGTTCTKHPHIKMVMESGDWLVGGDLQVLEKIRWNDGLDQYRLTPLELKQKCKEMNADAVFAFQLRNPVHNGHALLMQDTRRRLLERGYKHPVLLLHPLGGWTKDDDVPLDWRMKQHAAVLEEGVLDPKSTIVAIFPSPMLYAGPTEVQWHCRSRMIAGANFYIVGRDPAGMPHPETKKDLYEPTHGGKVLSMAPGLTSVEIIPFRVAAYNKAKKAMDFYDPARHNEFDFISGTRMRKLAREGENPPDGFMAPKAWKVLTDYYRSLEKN
UniProt Q9UBD5: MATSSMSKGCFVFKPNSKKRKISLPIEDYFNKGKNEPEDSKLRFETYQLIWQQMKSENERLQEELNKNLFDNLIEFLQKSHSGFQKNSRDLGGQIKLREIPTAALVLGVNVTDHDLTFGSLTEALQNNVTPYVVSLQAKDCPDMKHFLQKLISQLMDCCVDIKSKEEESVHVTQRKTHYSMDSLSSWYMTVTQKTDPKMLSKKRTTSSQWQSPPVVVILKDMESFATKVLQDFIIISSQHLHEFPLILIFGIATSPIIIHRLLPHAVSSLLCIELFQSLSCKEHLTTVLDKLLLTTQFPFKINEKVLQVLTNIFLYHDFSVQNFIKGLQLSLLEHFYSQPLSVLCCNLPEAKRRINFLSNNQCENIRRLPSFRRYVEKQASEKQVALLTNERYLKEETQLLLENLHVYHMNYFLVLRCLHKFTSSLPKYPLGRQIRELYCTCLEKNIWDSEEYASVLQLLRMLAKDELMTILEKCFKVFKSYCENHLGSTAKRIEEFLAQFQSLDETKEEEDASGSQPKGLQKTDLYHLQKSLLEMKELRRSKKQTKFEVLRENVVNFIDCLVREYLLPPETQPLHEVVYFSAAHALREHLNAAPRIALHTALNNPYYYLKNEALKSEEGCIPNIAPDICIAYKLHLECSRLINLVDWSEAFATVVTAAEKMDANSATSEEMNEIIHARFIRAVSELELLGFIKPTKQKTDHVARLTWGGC
UniProt Q86UD1: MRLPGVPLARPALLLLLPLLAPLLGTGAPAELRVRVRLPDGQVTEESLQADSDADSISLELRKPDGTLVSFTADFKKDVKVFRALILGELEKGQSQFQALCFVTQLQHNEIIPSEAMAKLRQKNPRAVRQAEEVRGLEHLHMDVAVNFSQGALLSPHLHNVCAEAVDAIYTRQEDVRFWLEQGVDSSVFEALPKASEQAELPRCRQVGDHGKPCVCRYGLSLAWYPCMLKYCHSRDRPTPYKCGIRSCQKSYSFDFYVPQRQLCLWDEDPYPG
UniProt O15527, whole entry, looked up: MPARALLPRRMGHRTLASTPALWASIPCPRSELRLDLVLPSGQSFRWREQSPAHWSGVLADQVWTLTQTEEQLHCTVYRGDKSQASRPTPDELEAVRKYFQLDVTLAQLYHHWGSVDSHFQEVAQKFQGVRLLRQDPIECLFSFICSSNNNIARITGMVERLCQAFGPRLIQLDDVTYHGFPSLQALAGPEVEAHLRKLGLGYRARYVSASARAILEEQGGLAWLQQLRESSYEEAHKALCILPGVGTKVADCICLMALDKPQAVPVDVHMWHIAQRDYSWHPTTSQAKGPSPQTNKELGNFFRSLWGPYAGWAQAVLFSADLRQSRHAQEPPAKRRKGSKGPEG
UniProt Q13438: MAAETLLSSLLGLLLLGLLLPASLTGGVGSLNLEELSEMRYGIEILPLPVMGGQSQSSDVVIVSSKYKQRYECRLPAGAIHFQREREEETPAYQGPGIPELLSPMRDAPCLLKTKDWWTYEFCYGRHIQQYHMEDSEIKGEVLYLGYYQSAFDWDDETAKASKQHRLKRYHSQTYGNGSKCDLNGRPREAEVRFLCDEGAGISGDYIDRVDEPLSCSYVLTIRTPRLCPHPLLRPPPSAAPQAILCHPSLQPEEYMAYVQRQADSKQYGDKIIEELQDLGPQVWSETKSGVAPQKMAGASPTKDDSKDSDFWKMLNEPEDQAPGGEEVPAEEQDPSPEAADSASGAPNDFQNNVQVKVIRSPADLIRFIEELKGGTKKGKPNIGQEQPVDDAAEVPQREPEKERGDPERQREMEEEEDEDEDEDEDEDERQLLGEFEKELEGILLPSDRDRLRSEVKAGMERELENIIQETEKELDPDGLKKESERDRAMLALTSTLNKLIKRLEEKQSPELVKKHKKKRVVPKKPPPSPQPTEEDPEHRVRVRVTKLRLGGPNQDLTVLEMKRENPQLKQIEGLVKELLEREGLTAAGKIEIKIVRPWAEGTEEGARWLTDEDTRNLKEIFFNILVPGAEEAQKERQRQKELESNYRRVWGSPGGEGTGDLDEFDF
UniProt Q9Y6K5: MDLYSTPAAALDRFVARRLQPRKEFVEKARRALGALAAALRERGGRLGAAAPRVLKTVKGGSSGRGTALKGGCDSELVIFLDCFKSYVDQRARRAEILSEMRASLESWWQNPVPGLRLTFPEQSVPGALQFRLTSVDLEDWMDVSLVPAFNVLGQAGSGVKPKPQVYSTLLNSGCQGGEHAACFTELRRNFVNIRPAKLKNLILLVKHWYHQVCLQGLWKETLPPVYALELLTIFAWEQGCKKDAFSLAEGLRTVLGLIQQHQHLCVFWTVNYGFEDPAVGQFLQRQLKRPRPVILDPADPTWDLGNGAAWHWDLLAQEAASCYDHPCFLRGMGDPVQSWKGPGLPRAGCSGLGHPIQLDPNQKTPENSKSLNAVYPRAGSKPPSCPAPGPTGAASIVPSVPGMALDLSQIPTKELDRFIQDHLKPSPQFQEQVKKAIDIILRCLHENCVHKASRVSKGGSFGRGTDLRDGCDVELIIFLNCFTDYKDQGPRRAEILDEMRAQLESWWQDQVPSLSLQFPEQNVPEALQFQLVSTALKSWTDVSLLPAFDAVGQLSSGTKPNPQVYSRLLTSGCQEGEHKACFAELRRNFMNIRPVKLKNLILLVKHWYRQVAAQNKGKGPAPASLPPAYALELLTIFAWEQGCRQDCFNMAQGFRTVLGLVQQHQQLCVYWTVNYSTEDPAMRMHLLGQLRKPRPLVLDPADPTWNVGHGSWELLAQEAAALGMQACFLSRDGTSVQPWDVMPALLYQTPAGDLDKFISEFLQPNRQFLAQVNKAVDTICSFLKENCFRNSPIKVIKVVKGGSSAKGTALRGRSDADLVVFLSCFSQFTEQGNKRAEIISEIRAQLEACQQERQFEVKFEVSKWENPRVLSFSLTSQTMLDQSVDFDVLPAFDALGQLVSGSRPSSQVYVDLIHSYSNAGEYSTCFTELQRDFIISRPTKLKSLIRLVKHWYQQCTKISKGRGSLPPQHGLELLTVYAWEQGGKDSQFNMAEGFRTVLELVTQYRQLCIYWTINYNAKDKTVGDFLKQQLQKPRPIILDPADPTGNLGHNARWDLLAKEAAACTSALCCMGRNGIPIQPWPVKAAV
UniProt Q8N4S7: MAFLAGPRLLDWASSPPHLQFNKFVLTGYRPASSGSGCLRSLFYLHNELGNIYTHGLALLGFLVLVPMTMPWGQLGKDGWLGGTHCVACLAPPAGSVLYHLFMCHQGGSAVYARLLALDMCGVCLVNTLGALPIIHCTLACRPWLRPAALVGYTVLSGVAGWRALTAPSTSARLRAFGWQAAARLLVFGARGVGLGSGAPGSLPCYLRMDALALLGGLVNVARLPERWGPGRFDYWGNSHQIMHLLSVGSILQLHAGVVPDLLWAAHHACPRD
UniProt Q9BXW6, whole entry, looked up: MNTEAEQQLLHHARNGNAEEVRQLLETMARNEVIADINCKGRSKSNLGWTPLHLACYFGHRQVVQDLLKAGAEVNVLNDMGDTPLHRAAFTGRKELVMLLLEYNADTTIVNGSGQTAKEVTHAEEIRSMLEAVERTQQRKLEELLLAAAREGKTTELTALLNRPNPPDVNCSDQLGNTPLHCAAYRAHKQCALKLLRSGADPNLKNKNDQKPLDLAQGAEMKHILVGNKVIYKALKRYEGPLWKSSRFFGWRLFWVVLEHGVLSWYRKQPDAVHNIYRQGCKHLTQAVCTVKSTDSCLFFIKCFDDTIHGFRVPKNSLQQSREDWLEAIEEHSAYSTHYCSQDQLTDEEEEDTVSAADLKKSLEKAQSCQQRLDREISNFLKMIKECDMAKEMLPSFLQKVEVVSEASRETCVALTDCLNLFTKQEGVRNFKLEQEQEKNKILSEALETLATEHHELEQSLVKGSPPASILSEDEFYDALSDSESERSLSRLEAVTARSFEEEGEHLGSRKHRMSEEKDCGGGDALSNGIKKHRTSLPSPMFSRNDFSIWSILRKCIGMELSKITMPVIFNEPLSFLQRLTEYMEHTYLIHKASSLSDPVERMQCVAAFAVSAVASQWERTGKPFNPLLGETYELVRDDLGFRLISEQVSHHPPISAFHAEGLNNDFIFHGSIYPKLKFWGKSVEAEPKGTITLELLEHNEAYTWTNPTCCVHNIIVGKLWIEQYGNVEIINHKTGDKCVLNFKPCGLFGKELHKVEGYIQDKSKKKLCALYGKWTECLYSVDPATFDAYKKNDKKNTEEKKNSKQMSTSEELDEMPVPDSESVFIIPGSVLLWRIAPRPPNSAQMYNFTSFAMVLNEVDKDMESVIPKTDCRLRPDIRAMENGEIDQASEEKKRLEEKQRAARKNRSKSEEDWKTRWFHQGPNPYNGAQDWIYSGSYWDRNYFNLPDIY
UniProt Q86WK9: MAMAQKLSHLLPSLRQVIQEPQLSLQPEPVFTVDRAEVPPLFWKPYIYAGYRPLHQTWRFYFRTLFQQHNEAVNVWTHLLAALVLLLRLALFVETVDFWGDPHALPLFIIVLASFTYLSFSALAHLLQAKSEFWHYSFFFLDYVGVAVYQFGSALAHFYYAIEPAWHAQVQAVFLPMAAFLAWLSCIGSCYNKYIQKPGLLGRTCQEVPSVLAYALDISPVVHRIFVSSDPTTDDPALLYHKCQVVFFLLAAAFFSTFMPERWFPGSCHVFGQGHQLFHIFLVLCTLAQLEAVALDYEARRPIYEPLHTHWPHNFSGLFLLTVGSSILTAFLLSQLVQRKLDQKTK
UniProt Q58A45: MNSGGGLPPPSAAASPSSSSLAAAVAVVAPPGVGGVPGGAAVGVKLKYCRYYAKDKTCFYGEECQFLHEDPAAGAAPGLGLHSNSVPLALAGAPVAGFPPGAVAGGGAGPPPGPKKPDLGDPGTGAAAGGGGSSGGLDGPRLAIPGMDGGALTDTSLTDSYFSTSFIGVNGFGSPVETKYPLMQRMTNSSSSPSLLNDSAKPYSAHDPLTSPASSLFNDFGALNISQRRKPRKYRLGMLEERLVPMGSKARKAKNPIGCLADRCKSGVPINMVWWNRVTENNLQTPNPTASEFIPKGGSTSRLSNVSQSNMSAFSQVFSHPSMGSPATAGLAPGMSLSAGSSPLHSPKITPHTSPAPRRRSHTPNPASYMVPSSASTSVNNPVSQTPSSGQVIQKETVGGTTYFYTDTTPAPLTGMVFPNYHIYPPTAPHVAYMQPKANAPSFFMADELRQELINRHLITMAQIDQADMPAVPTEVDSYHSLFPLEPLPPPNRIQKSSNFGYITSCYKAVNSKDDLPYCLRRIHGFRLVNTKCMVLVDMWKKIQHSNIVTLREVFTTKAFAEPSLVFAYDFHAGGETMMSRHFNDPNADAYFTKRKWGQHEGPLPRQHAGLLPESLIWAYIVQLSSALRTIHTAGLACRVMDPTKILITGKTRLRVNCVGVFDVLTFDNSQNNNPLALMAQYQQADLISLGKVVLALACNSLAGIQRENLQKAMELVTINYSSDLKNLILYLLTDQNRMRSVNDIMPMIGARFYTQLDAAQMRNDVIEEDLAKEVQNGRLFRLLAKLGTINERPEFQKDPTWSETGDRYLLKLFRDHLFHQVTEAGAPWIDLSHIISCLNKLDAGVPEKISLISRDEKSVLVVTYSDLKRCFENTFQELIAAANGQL

[1] = compound: CCCS(=O)(=O)Nc1ccc(F)c(C(=O)c2c[nH]c3ncc(Cl)cc23)c1F
Summary of the method: as §1

barasertib = compound: CCN(CCCOc1ccc2c(Nc3cc(CC(=O)Nc4cccc(F)c4)[nH]n3)ncnc2c1)CCOP(=O)(O)O [barasertib]
Summary of the method: as §1

[2] = compound: CC[C@@H]1C(=O)N(C)c2cnc(Nc3ccc(C(=O)NC4CCN(C)CC4)cc3OC)nc2N1C1CCCC1
Summary of the method: as §1

volasertib = compound: CC[C@@H]1C(=O)N(C)c2cnc(Nc3ccc(C(=O)N[C@H]4CC[C@H](N5CCN(CC6CC6)CC5)CC4)cc3OC)nc2N1C(C)C [volasertib]
Summary of the method: as §1

[3] = compound: CCn1c(C(=O)N(C2CC2)C2CC2)cc2c3c(ncn3C)c(Nc3cc(C)n(C)n3)nc21
Summary of the method: as §1

[4] = compound: CCn1cc(-c2ccnc3[nH]c(-c4cccc(CN(C)C)c4)cc23)c(-c2ccc(NC(=O)N(C)C)cc2)n1
Summary of the method: as §1

[5] = compound: CN1CCC(CNc2ccc3ncc(-c4cccc(OC(F)(F)F)c4)n3n2)CC1
Summary of the method: as §1

saracatinib = compound: CN1CCN(CCOc2cc(OC3CCOCC3)c3c(Nc4c(Cl)ccc5c4OCO5)ncnc3c2)CC1 [saracatinib]
Summary of the method: as §1

alvocidib = compound: CN1CC[C@H](c2c(O)cc(O)c3c(=O)cc(-c4ccccc4Cl)oc23)[C@H](O)C1 [alvocidib]
Summary of the method: as §1

Tubastatin A = compound: CN1CCc2c(c3ccccc3n2Cc2ccc(C(=O)NO)cc2)C1 [Tubastatin A]
Summary of the method: as §1

[6] = compound: CNC(=O)C1=CC=CC=C1NC2=NC(=NC=C2Cl)NC3=C(C=C(C=C3)N4CCOCC4)OC
Summary of the method: as §1

defactinib = compound: CNC(=O)c1ccc(Nc2ncc(C(F)(F)F)c(NCc3nccnc3N(C)S(C)(=O)=O)n2)cc1 [defactinib]
Summary of the method: as §1

[7] = compound: CNc1nc(-c2ccc3c(N)n[nH]c3c2)cc(N2C[C@@H](C(=O)NC3CCCCC3)CC[C@H]2C)n1
Summary of the method: as §1

encorafenib = compound: COC(=O)N[C@@H](C)CNc1nccc(-c2cn(C(C)C)nc2-c2cc(Cl)cc(NS(C)(=O)=O)c2F)n1 [encorafenib]
Summary of the method: as §1

[8] = compound: COC(=O)[C@H](CCSC)NC(=O)C1=C(C=C(C=C1)NC[C@H](CS)N)C2=CC=CC=C2
Summary of the method: as §1

alisertib = compound: COc1cc(Nc2ncc3c(n2)-c2ccc(Cl)cc2C(c2c(F)cccc2OC)=NC3)ccc1C(=O)O [alisertib]
Summary of the method: as §1

[9] = compound: COc1cc2nc(-c3cc(F)ccc3O)nc(N[C@@H]3CNC[C@H]3C(C)(C)O)c2cc1OC
Summary of the method: as §1

gefitinib = compound: COc1cc2ncnc(Nc3ccc(F)c(Cl)c3)c2cc1OCCCN1CCOCC1 [gefitinib]
Summary of the method: as §1

sotrastaurin = compound: CN1CCN(c2nc(C3=C(c4c[nH]c5ccccc45)C(=O)NC3=O)c3ccccc3n2)CC1 [sotrastaurin]
Summary of the method: as §1

Measured: log2 fold change

PANK3 (UniProt Q9H999)
inactive: vemurafenib 0.074 | [1] -0.033 | barasertib -0.118 | [2] -0.062 | volasertib -0.172 | [3] -0.044 | [4] -0.014 | [5] 0.023 | saracatinib 0.288 | alvocidib -0.023 | Tubastatin A 0.107 | [6] 0.121 | defactinib -0.028 | [7] 0.081 | encorafenib -0.041 | [8] 0.155 | alisertib 0.113 | [9] 0.23 | gefitinib -0.015

PAPSS2 isoform 2 (UniProt O95340)
inactive: vemurafenib 0.044 | [1] -0.013 | barasertib 0.047 | [2] 0.054 | volasertib -0.02 | [4] -0.511 | [5] 0.12 | alvocidib -0.108 | defactinib -0.03 | encorafenib -0.059 | [8] 0.029 | [9] 0.037

NUP214 isoform 4 (UniProt P35658)
inactive: [1] 0.08 | barasertib 0.027 | volasertib -0.012 | [3] -0.366 | [4] -0.039 | [5] 0.047 | alvocidib -0.062 | Tubastatin A 0.051 | [6] -0.006 | alisertib 0 | [9] -0.022 | gefitinib -0.041

ORC3 (UniProt Q9UBD5)
inactive: [1] -0.16 | volasertib 0.003 | [4] 0.185 | [5] -0.06 | alvocidib 0.16 | alisertib -0.035 | [9] 0 | gefitinib 0.105

ORMDL3 (UniProt Q8N138)
inactive: [1] 0.167 | volasertib -0.054 | saracatinib 0.222 | sotrastaurin 0.122 | [7] 0.047 | [9] 0.026

PAOX (UniProt Q6QHF9)
inactive: barasertib -0.358 | [3] -0.046 | sotrastaurin 0.093 | Tubastatin A 0.055

OCIAD1 (UniProt D6RF01)
inactive: [1] 0.027 | barasertib -0.121 | volasertib 0.033 | alisertib -0.646 | [9] 0.109 | gefitinib -0.423

OGDH isoform 2 (UniProt Q02218)
inactive: [4] -0.251 | [5] -0.08 | alvocidib 0.002

OAF (UniProt Q86UD1)
inactive: [3] 0.017 | saracatinib 0.202 | Tubastatin A -0.183 | [6] -0.06 | [7] -0.039

ORC1 (UniProt Q13415)
inactive: [2] 0.185 | encorafenib 0.018 | [8] -0.188

Looked up one by one from above (two):
OGDH isoform 2 (UniProt Q02218)
inactive: [4] -0.251 | [5] -0.08 | alvocidib 0.002

OAF (UniProt Q86UD1)
inactive: [3] 0.017 | saracatinib 0.202 | Tubastatin A -0.183 | [6] -0.06 | [7] -0.039

Next part.

PACRGL (UniProt Q8N7B6)
inactive: [2] 0.086 | [4] 0.245 | [5] -0.063 | saracatinib -0.136 | sotrastaurin -0.311 | alvocidib 0.022 | [7] -0.076 | encorafenib -0.141 | [8] -0.094

OXLD1 (UniProt Q5BKU9)
inactive: [1] -0.103 | volasertib 0.187 | [3] 0.004 | sotrastaurin 0.074 | Tubastatin A 0.21 | alisertib -0.128 | [9] -0.054 | gefitinib -0.167

OSBPL9 (UniProt E9PLH0)
inactive: barasertib -0.206 | [6] 0.054

OPHN1 (UniProt O60890)
inactive: [1] -0.011 | barasertib -0.025 | [2] -0.061 | volasertib 0.007 | [3] -0.117 | [4] 0.095 | [5] -0.044 | saracatinib -0.072 | alvocidib 0.022 | Tubastatin A 0.111 | [7] 0.062 | encorafenib 0.221 | [8] 0.003 | [9] 0.117

OBSCN isoform 6 (UniProt Q5VST9)
inactive: [1] -0.031 | volasertib -0.121 | [6] 0.009 | [9] 0.088

P4HB (UniProt I3L0S0)
inactive: [1] 0.068 | volasertib 0.124 | [9] -0.038

NUP214, A0A494C1F2
inactive: [3] -0.015 | Tubastatin A -0.262 | [6] -0.169

OGG1 isoform 4 (UniProt O15527)
inactive: [2] 0.013 | saracatinib -0.023 | [6] -0.053 | [7] 0.098 | encorafenib 0.024 | [8] -0.021

OS9 isoform 7 (UniProt Q13438)
inactive: [4] -0.114 | [5] 0.096 | alvocidib -0.087 | [6] 0.035

OXR1 isoform 7 (UniProt Q8N573)
inactive: [4] 0.007 | [5] -0.044 | alvocidib -0.034

OAS3 (UniProt Q9Y6K5)
inactive: [1] -0.147 | [2] 0.023 | volasertib 0.069 | [3] -0.225 | sotrastaurin 0.109 | Tubastatin A 0.159 | [6] 0.096 | encorafenib 0.04 | [8] -0.26 | alisertib 0.041 | [9] 0.001 | gefitinib -0.007

PAQR4 (UniProt Q8N4S7)
inactive: [6] -0.061

NXPE1 (UniProt F5H0Y6)
inactive: [1] 0.218 | barasertib 0.178 | volasertib -0.021 | [9] 0.087

NXF2 (UniProt Q9GZY0)
inactive: [4] 0.245 | [5] -0.102 | saracatinib -0.134 | alvocidib 0.162 | [6] 0.104 | [7] -0.026

PALM isoform 2 (UniProt O75781)
inactive: [6] 0.185

OSBPL1A (UniProt Q9BXW6)
inactive: [1] 0.028 | barasertib 0.007 | volasertib 0.019 | [4] -0.095 | [5] 0.05 | saracatinib 0.013 | sotrastaurin 0.038 | alvocidib -0.035 | [6] 0.091 | [7] 0.099 | alisertib -0.071 | [9] 0.048 | gefitinib 0.135

PACS2 isoform 2 (UniProt Q86VP3)
inactive: [2] -0.201 | [3] 0.027 | [4] -0.159 | [5] -0.001 | sotrastaurin 0.161 | alvocidib -0.119 | Tubastatin A -0.018 | [6] 0.06 | encorafenib -0.056 | [8] 0.118

P2RY1 (UniProt P47900)
inactive: [1] -0.08 | barasertib 0.034 | [2] 0.006 | volasertib -0.111 | [3] 0.022 | [4] 0.057 | [5] 0.093 | saracatinib 0.015 | alvocidib -0.025 | Tubastatin A 0.06 | [6] -0.077 | [7] -0.013 | encorafenib 0.054 | [8] 0.057 | [9] -0.068

NXT2 isoform 3 (UniProt Q9NPJ8)
inactive: [1] -0.05 | volasertib 0.118 | [4] -0.225 | [5] 0.043 | alvocidib 0.117 | [9] -0.101

PARD3B (UniProt Q8TEW8)
inactive: [4] 1.46 | [5] -0.046 | saracatinib -0.002 | alvocidib -0.125 | [6] 0.005 | [7] 0.093

OPA3 isoform 2 (UniProt Q9H6K4)
inactive: saracatinib 0.088 | sotrastaurin 0.023 | [7] 0.057

OXR1 isoform 2 (UniProt Q8N573)
inactive: [3] -0.048 | [4] 0.084 | [5] -0.046 | alvocidib 0.037 | Tubastatin A -0.037

ORAI1 (UniProt Q96D31)
inactive: [1] -0.16 | barasertib 0.187 | [2] 0.003 | volasertib -0.05 | [3] -0.094 | [4] -0.109 | [5] 0.045 | sotrastaurin -0.006 | alvocidib -0.064 | Tubastatin A 0.173 | [6] -0.096 | encorafenib 0.053 | [8] -0.147 | alisertib -0.02 | [9] 0.028 | gefitinib -0.005

PAQR7 (UniProt Q86WK9)
inactive: [6] -0.199

PABPC1 (UniProt H0YAR2)
inactive: [1] -0.001 | barasertib 0.001 | volasertib -0.001 | [3] 0.04 | [4] 0.07 | [5] 0.173 | sotrastaurin -0.029 | alvocidib 0.021 | Tubastatin A -0.03 | [6] -0.004 | alisertib -0.107 | [9] 0.064 | gefitinib 0.042

PAN3 (UniProt Q58A45)
inactive: sotrastaurin 0.059 | alisertib -0.17 | gefitinib -0.201
